These results are taken from article PMC5102403.

Sequences of proteins named here, by UniProt entry; tags and fusion partners are left off.
UniProt Q61457: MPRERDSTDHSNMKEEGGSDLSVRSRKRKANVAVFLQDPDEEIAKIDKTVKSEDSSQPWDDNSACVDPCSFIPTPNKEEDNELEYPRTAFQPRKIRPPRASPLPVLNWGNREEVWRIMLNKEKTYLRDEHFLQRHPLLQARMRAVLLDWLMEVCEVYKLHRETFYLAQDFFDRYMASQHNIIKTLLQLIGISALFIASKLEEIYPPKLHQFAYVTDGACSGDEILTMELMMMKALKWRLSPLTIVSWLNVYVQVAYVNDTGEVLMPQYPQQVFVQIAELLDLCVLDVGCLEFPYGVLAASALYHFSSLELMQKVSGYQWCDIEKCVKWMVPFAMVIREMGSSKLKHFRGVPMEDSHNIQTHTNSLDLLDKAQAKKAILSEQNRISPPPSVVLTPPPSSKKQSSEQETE

These are yes or no findings as the source states them, for the method shown. In cells and extracts the contact can be indirect. A yes stands for co-enrichment or nearness to the bait. Other partners may have been found.

The target of this experiment is N-terminally Flag- and HA-tagged cyclin E1 (cyclin E1^Ntag knock-in allele) (mouse) (UniProt Q61457). Nature of the experiment: affinity purification with mass spectrometry; sequential anti-Flag and anti-HA purification from spleens and thymuses of cyclin E1 Ntag/Ntag and Cdk2-/-/cyclin E1 Ntag/Ntag mice, iTRAQ labelling and quantitative LC-MS.

B1: Cdk4, mouse (enzyme, UniProt P30285 1-303)
chain: MAATRYEPVAEIGVGAYGTVYKARDPHSGHFVALKSVRVPNGGAAGGGLPVSTVREVALLRRLEAFEHPNVVRLMDVCATSRTDRDIKVTLVFEHIDQDLRTYLDKAPPPGLPVETIKDLMRQFLSGLDFLHANCIVHRDLKPENILVTSNGTVKLADFGLARIYSYQMALTPVVVTLWYRAPEVLLQSTYATPVDMWSVGCIFAEMFRRKPLFCGNSEADQLGKIFDLIGLPPEDDWPREVSLPRGAFAPRGPRPVQSVVPEMEESGAQLLLEMLTFNPHKRISAFRALQHSYLHKEESDAE
Take B1: the binding entry was “binds”.
